Among all 52,000 sequences or so, about 210 (0.4%) were called active.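 How the source made its calls: active means gene whose silencing raises cell survival under the drug, median off-target-corrected z-score across its silencing RNAs 2 or more; inactive means the rest.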 Some of the results follow.
Test: Resistance to Poly (ADP-Ribose) Polymerase inhibitor: Gene Identification via Genome-wide siRNA Screen
Conditions: mouse BRCA2 R2336H ES cells, olaparib, CellTiter-Glo viability; hits give high values
In short: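 Mouse BRCA2 R2336H ES cells were reverse-transfected with siRNA (20 nM final), treated at 48 h with 500 nM olaparib, and read by CellTiter-Glo after 72 h. Scores: MAD-based z per siRNA, median per gene, seed off-target correction.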

Sequence | z-score
CGUGAAAUAGAUGAUACCUTT against Cdc5l | inactive: -0.394
GGAAUUGAACAAAACCAUCTT against 9830137M10Rik | inactive: 0.976
GGAACGAACUCAUUAAAACTT against Abhd3 | inactive: 0.207
CCCUCAGUUGGUCACAUGUTT against Brp44l | inactive: 2.34
GGCAUCUUGACCUUGAAGUTT against 4732495G21Rik | inactive: -0.102
CCAGCAUCUACUGUCUGACTT against Sstr1 | inactive: -1.73
CGGAGAAGUGACGUAUUCUTT against Pcdhga4 | inactive: 1.54
CCUUAAUCACCACCUUCAUTT against D730040F13Rik | inactive: 0.531
GGUCACCUUAUAAUUGCCCTT against Btd | inactive: -0.292
GGUCUGGAUGCUUUAGAAUTT against 9130005N14Rik | inactive: 0.472
GGGUUUGUUUCCAGGACAATT against E130308A19Rik | inactive: 0.0485
GCCAGUUCCUAUCUGGCUUTT against 4931428L18Rik | inactive: -0.75
GGUGAUCACUCUCUCUGAATT against Olfr187 | inactive: -0.153
GCUUCAGGUCAGUCUCUUCTT against Olfr1042 | inactive: 0.109
GCUCUCAUCAGACUUCGAGTT against Zfp202 | inactive: 0.288
GGCUUCUAUGUCAUAGGAATT against Olfr351 | inactive: 0.282
CCAGAGGUCUCUAUUAAGATT against Cad | inactive: -0.521
GGGCAAGUCCAUCCAAGACTT against Pthlh | inactive: 0.102
GCCAUCAUCUGGGUAGUGUTT against Olfr1494 | inactive: -0.735
CGAACCAAUGUCAACUUUCTT against 4933408F15 | inactive: -0.953
GGCUGAUGGAAGAAUAUGATT against Actn2 | inactive: 1.38
GGAAGAUCCAUUUAAUGUATT against Eps15 | inactive: 0.349

Sequence | z-score
GGAAGCUACCCAGAUGGAUTT against AI841987 | inactive: 2.52
GGCAAAAUAAAGCAGUGGUTT against Mrps25 | inactive: -0.934
GGACAGUUCCUUCAGCACCTT against Bmf | inactive: -0.185
GGAUAAUGUCUCCUGCUUGTT against Plk3 | inactive: -0.834
GCAUACGAAGGACAACCUGTT against Bspry | inactive: -0.986
GGCUAUGCAAGUGUUCUCUTT against Abpd | inactive: -0.478
GCUCGUGUCAGAACCGAUGTT against Rwdd3 | inactive: 0.942
GGCUCACCCUAACUUUCCATT against Akr1c18 | inactive: -0.528
GGGACAGAGCCGAAAGAGUTT against Mrpl33 | inactive: -1.15
GCUCAGGCAAGACUCAUUGTT against Trim45 | inactive: -1.65
GGUGAAGAAAGUCAAGAAGTT against Sfpi1 | inactive: 1.08
GGUCUACUUUUACGUCUCCTT against Nfatc4 | inactive: 0.465
GGCGCAGUAUCACAGUCUUTT against Tle1 | inactive: -2.51
GCUGUAACUACAUUUGAGGTT against 4931406I20Rik | inactive: 0.0952
GCUGAUUACCUCAGCAGAUTT against Prkcn | inactive: -0.0476
GGUUUUCAAGUUUUAGUGUTT against Gsta2 | inactive: -0.239
GGAAGGAGAGACCAUUGAGTT against Nudt1 | inactive: -3.1
GGCCUUUCACUUUCACUGGTT against Car6 | inactive: 0.874
GGAGACUGUGAAGUUUGUATT against Armet | inactive: -0.693
GGCUAAAAAUCUCAUAGAGTT against Zpbp | inactive: 0.488
GGCACAAUAAAAUAUAAGGTT against Srprb | inactive: 1.09
CCAAUAAGUACAGCACCUUTT against C1ql4 | inactive: -1.77

Three records drawn at random from the list so far:
Sequence | z-score
GGCUCACCCUAACUUUCCATT against Akr1c18 | inactive: -0.528
GCUGAUUACCUCAGCAGAUTT against Prkcn | inactive: -0.0476
GCUCAGGCAAGACUCAUUGTT against Trim45 | inactive: -1.65

(continued)

Sequence | z-score
GCCAUCUGCCAGUAUACAATT against LOC381438 | inactive: -1.84
GGAUACCACCAUCAAUGAGTT against Atp6v1f | inactive: -0.615
GGAAGGACAGAAGAGGCCATT against Slc22a13 | inactive: -0.574
GGCAAAUGAGACCUCAGAATT against Cpxm1 | inactive: -0.0873
CCUCGCUUAUGUCAAUAAUTT against 1700008G05Rik | inactive: 0.835
CCCUUGGCCAAGGAACAUUTT against 4921509C19Rik | inactive: -0.0297
GGCCAUAGCAUCUUGUUCUTT against Supt4h | inactive: -1.64
GGCCUACAACAACCUCAUUTT against Crat | inactive: -1.15
GCAUUUCCUUAACACUCCCTT against Msmb | inactive: 1.07
CCUGGUACUCCAGAAUGUUTT against Sh3tc1 | inactive: -0.782
UACAUACAGGCUGUCUGUUTT against Olfr181 | inactive: -0.221
GCGCAAACUUUAAUAACACTT against 9130423L19Rik | inactive: -0.0417
ACUGUAUACAAUUUCUUGCTT against Olfr206 | inactive: -0.0829
GCCCUGUUGGACAUGAUCGTT against 2310001N14Rik | inactive: 0.369
GGCAGUUAUGAUAAAGAUUTT against Slc25a16 | inactive: -0.19
CCACCUGGUUUAUCAAAAUTT against Cnot4 | inactive: 1.76
GGUAGAAGGUCCUGAAGAATT against Clybl | inactive: -1.33
GGCAGAAGACUUGGUGAUCTT against 2810423O19Rik | inactive: -1.21
GGAUUGUGUUUGAGUCUCATT against MGC49146 | inactive: -1.4
GGAGUGAAUACUGGUGCUGTT against Crip2 | inactive: 2.12
GGUAACUGGGAUUGUAUUUTT against Cbln4 | inactive: -1.43
GGGAAAGAUAGUAGAAGUCTT against Gmpr2 | inactive: 0.0609
